Our source for the binding values is article doi:10.1101/575241.

For assay [1], the target named is S. pombe Pib1 (aa 123-279) (S. pombe). The assay is described as follows: two-hybrid.
For assay [2], the target named is ^GSTPib1ΔFYVE (S. cerevisiae). Description: pull-down.

These are yes or no findings as the source states them, for the method shown. Binding can be weak; no strength is given. For some of these results: Tags and fused reporters may be left off the sequences shown.

B1: Mms2 (protein, UniProt P53152 1-137)
chain: MSKVPRNFRLLEELEKGEKGFGPESCSYGLADSDDITMTKWNGTILGPPHSNHENRIYSLSIDCGPNYPDSPPKVTFISKINLPCVNPTTGEVQTDFHTLRDWKRAYTMETLLLDLRKEMATPANKKLRQPKEGETF
Take B1: in assay [1], the binding result is listed as “binds weakly”.

B2: ^HisUbc13 (enzyme, UniProt P52490 1-153)
chain: MASLPKRIIKETEKLVSDPVPGITAEPHDDNLRYFQVTIEGPEQSPYEDGIFELELYLPDDYPMEAPKVRFLTKIYHPNIDRLGRICLDVLKTNWSPALQIRTVLLSIQALLASPNPNDPLANDVAEDWIKNEQGAKAKAREWTKLYAKKKPE
B2: the binding result in assay [2] is “binds”.

B3: Ubc13 (enzyme, UniProt P52490 1-153)
chain: B2 chain
On to B3, for which the binding result in assay [1] is listed as “binds”.

B4: ^HisCdc34 (enzyme, UniProt P14682 1-295)
chain: MSSRKSTASSLLLRQYRELTDPKKAIPSFHIELEDDSNIFTWNIGVMVLNEDSIYHGGFFKAQMRFPEDFPFSPPQFRFTPAIYHPNVYRDGRLCISILHQSGDPMTDEPDAETWSPVQTVESVLISIVSLLEDPNINSPANVDAAVDYRKNPEQYKQRVKMEVERSKQDIPKGFIMPTSESAYISQSKLDEPESNKDMADNFWYDSDLDDDENGSVILQDDDYDDGNNHIPFEDDDVYNYNDNDDDDERIEFEDDDDDDDDSIDNDSVMDRKQPHKAEDESEDVEDVERVSKKI
For B4, the binding entry in assay [2] is “no binding (tested: 100 pmol)”.
